Where a chain is given by its changes, count along the chain named. The list shows a part of the results, in another mix than the full data. Calls are pooled over several reports, among them a noisy single-well screen. Some of the results follow.
Experiments:
Conditions in all cases: stereoisomer not certain
[1] = biological target: T1, OR2K2 (Homo sapiens) (UniProt Q8NGT1)
T1 sequence (whole entry): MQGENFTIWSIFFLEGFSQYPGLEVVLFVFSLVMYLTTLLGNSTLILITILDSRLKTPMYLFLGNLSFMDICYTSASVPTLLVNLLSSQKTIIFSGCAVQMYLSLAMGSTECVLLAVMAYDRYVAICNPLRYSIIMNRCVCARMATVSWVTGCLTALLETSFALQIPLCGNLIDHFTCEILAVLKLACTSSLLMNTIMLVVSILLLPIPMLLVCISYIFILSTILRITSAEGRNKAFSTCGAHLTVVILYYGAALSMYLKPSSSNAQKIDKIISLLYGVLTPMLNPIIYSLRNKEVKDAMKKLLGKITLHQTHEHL
In short: (§1)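 Assay methods differ from source to source, frequently being transient luciferase assays in mammalian cell lines. For each receptor–molecule pair, the label responsive (active) applies when the original authors judged the measured signal statistically different from baseline, and non-responsive (inactive) applies otherwise.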

Chains of the proteins cited; added tags and fusions are not shown. Chains listed by the source or under a name are the forms on record and can include a tag or linker.
OR2J3, as listed by the source: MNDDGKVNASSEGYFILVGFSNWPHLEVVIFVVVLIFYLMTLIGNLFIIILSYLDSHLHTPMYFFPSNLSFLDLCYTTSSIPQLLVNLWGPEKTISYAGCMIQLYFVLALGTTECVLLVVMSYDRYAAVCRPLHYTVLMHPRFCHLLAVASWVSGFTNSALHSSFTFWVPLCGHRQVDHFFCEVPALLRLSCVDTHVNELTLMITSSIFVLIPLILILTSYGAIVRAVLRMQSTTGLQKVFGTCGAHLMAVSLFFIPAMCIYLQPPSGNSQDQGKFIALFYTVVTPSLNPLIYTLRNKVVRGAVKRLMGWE

[2] = biological target: T2, OR2L13 (Homo sapiens) (UniProt Q8N349)
T2 sequence (whole entry): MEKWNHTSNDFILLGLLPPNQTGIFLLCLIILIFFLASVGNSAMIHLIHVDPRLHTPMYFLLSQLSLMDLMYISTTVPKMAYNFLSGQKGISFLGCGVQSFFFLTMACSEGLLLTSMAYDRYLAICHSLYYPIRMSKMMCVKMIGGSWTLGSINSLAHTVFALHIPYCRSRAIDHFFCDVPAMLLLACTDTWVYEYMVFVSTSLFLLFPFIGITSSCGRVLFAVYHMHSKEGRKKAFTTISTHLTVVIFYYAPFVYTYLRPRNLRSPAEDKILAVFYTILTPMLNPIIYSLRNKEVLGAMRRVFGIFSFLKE
In short: as §1

[3] = biological target: T3, OR2L2 (Homo sapiens) (UniProt Q8NH16)
T3 sequence (whole entry): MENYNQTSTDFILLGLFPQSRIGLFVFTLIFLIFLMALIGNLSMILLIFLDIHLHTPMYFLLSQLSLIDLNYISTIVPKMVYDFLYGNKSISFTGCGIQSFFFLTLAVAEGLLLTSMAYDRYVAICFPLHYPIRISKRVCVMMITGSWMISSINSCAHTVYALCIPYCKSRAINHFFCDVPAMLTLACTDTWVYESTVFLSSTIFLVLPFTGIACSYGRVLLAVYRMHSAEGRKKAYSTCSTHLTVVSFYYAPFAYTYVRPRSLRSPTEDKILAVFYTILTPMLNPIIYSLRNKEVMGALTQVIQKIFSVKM
In short: as §1

[4] = system: T4, OR2L3
T4 sequence (whole entry): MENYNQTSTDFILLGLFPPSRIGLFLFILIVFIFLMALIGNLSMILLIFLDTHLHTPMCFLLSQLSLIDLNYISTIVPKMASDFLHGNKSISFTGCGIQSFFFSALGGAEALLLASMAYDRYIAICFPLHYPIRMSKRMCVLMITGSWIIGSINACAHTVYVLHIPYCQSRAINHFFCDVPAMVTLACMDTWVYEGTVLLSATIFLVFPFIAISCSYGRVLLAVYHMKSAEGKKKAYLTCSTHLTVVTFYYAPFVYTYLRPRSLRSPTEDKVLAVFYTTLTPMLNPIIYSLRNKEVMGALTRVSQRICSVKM
In short: as §1

[5] = biological target: T5, OR2L5 (Homo sapiens) (UniProt Q8NG80)
T5 sequence (whole entry): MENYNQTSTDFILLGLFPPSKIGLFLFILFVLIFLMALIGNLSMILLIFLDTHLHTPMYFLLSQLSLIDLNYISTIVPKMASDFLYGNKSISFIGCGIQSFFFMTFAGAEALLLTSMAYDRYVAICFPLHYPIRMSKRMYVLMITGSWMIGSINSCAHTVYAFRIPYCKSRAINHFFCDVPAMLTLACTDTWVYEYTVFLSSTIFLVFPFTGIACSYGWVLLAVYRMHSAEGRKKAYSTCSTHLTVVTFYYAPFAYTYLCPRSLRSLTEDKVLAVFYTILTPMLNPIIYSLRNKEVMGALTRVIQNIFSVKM
In short: as §1

[6] = system: T6, OR2L8
T6 sequence (whole entry): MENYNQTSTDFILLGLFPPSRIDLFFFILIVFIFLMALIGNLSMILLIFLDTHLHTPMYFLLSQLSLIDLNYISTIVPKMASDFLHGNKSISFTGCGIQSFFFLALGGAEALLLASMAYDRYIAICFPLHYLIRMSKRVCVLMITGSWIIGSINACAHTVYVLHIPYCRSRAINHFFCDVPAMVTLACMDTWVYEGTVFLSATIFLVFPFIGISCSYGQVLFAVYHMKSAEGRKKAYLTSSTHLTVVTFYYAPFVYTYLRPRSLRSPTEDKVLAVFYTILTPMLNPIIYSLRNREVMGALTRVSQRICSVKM
In short: as §1

[7] = system: T7, OR2M2
T7 sequence (whole entry): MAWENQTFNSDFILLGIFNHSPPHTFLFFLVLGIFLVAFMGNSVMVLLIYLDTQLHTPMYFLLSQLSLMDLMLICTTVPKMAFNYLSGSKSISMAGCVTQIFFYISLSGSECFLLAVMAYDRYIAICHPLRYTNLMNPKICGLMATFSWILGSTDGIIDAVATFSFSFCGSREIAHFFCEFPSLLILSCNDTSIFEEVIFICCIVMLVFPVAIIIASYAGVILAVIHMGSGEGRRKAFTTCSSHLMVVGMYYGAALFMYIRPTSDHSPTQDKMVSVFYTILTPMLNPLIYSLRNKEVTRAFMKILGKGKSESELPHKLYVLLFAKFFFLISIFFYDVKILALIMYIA
In short: as §1

[8] = biological target: T8, OR2M3 (Homo sapiens) (UniProt Q8NG83)
T8 sequence (whole entry): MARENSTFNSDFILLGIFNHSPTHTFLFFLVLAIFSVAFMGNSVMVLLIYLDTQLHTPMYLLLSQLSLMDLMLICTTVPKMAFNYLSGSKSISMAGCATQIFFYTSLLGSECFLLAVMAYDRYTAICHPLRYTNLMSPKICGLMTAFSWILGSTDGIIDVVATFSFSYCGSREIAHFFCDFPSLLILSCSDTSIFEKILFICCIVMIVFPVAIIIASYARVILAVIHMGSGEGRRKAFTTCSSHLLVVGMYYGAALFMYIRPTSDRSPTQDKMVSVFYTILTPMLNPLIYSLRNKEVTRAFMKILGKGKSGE
In short: as §1

[9] = biological target: T9, OR2M4 (Homo sapiens) (UniProt Q96R27)
T9 sequence (whole entry): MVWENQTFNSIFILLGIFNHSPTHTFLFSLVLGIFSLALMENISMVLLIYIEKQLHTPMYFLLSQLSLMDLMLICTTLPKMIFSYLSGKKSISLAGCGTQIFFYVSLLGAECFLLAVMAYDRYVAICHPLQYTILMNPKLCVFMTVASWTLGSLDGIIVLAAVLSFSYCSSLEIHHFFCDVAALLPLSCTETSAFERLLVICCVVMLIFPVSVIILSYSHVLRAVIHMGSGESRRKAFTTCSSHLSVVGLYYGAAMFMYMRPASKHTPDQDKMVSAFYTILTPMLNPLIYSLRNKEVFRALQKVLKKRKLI
In short: as §1

[10] = system: T10, OR2J3
T10 sequence (whole entry): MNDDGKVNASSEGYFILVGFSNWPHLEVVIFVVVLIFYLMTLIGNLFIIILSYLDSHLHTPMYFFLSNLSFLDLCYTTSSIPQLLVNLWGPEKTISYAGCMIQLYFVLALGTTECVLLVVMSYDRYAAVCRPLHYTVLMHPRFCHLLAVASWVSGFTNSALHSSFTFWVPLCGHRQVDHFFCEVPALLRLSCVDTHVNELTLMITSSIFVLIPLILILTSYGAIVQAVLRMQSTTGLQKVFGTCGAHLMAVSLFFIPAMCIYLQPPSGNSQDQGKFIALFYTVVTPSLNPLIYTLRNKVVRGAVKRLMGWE
In short: as §1

[11] = system: T11, OR2J3; remark: listed apart in the source
T11 sequence (whole entry): T10 sequence (whole entry) with Q226R, I261M
In short: as §1

[12] = system: OR2J3; remark: listed apart in the source
In short: as §1

[13] = system: OR2J3; remark: listed apart in the source
In short: as §1

[14] = system: OR2J3; remark: listed apart in the source
In short: as §1

[15] = system: OR2J3; remark: listed apart in the source
In short: as §1

[16] = system: OR2J3; remark: listed apart in the source
In short: as §1

[17] = biological target: OR2L8 (Homo sapiens) (UniProt Q8NGY9)
In short: as §1

[18] = biological target: OR2M2 (Homo sapiens) (UniProt Q96R28)
In short: as §1

Row | Compound | odorant receptor agonist call [1] | odorant receptor agonist call [2] | odorant receptor agonist call [3] | odorant receptor agonist call [4] | odorant receptor agonist call [5] | odorant receptor agonist call [6] | odorant receptor agonist call [7] | odorant receptor agonist call [8] | odorant receptor agonist call [9] | odorant receptor agonist call [10] | odorant receptor agonist call [11] | odorant receptor agonist call [12] | odorant receptor agonist call [13] | odorant receptor agonist call [14] | odorant receptor agonist call [15] | odorant receptor agonist call [16] | odorant receptor agonist call [17] | odorant receptor agonist call [18]
1 | CC(=O)OC1CC2CCC1(C)C2(C)C (stereo not drawn) | inactive | inactive | inactive | inactive | inactive | inactive | inactive | inactive | inactive |  |  |  |  |  |  |  |  | 
2 | O=C1CCCCCCCCCCCC(=O)OCCO1 | inactive | inactive | inactive | inactive | inactive | inactive | inactive | inactive | inactive | inactive | active |  |  |  |  |  |  | 
3 | CCC=CCCO | inactive | inactive | inactive | inactive | inactive | inactive | inactive | inactive | inactive | active | active | inactive | active | active | active | inactive |  | 
4 | COc1cc(C=O)ccc1O | inactive | inactive | inactive | inactive | inactive | inactive | inactive | inactive |  |  |  |  |  |  |  |  |  | 
5 | CC(=O)OC(C)(C)C1CC=C(C)CC1 (stereo not drawn) | inactive | inactive | inactive | inactive | inactive | inactive | inactive | inactive | inactive |  |  |  |  |  |  |  |  | 
6 | COc1cc(C)ccc1O | inactive | inactive | inactive | inactive | inactive | inactive | inactive | inactive | inactive |  |  |  |  |  |  |  |  | 
7 | CC(C)(C)c1ccc(CCC=O)cc1 | inactive | inactive | inactive | inactive | inactive | inactive | inactive | inactive | inactive |  |  |  |  |  |  |  |  | 
8 | CCCC(=O)O | inactive | inactive | active | inactive | inactive | inactive | inactive | inactive | inactive |  |  |  |  |  |  |  |  | 
9 | CC12C=CCC1C1CCC3CC(=O)CCC3(C)C1CC2 (stereo not drawn) | inactive | inactive | inactive | inactive | inactive | inactive | inactive | inactive | inactive |  |  |  |  |  |  |  | inactive | inactive
10 | C=CC(C)(O)CCC=C(C)C (stereo not drawn) | inactive | inactive | inactive | inactive | inactive | inactive | inactive | inactive | inactive |  |  |  |  |  |  |  |  | 
11 | CCCCCCOC(=O)CCC | inactive | inactive | inactive | inactive | inactive | inactive | inactive | inactive | inactive |  |  |  |  |  |  |  |  | 
12 | CC=Cc1ccc(O)c(OC)c1 | inactive | active | inactive | inactive | active | inactive | active | inactive | inactive |  |  |  |  |  |  |  |  | 

Copied from the list.
Value for COc1cc(C=O)ccc1O under odorant receptor agonist call [7]: inactive
Value for O=C1CCCCCCCCCCCC(=O)OCCO1 under odorant receptor agonist call [4]: inactive

From the M2OR odorant receptor database
